In the supplement of paper PMC8256030 one finds percent viability data, which are given here for 35 compounds.

Values joined by “and” are separate entries in the source; they are usually repeats but may differ in a detail not shown here. Identical values can stand only once. Counter-ions that a name gives are not always drawn. The list shows a part of the results. This data set is noisy: repeats of one test often differ as much as different tests do.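 HEK293T cells were given each compound shortly before transfection with a reporter in which red mCherry is followed by the SARS-CoV-2 frameshift element and then GFP in the −1 frame, so GFP appears only after frameshifting.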

The test system of the assay is HEK293T. Nature of the assay: percent viability (nuclei count) relative to control; higher = more viable cells. The settings on record: 10 µM; 24 h.
For the compound `CN1C(C(=O)Nc2ccccn2)=C(O)c2ccccc2S1(=O)=O` [piroxicam], the percent viability stood at 272%.

As to `Oc1c(Br)cc(Br)c2cccnc12` [broxyquinoline], the percent viability was 256%.

Turning to `NC(=O)c1csc([C@@H]2O[C@H](CO)[C@@H](O)[C@H]2O)n1` [tiazofurine], the percent viability came out at 317%.

In the case of `CSc1nc2cc(Cl)c(Oc3cccc(Cl)c3Cl)cc2[nH]1` [triclabendazole], the percent viability was determined as 190%.

Consider `CCC(c1ccccc1)c1c(O)c2ccccc2oc1=O` (stereo not given) [Phenprocoumon], for which the percent viability is 59.5%.

In the case of `OCc1ccccc1O[C@@H]1O[C@H](CO)[C@@H](O)[C@H](O)[C@H]1O`, the percent viability turned out to be 372%.

`CC1(C)S[C@@H]2[C@H](NC(=O)[C@H](N)c3ccc(O)cc3)C(=O)N2[C@H]1C(=O)O` [amoxicillin]: the percent viability came out at 153%.

Take `O=C([O-])c1ccccc1O.[Na+]`: the percent viability came out at 208%.

Regarding `C[C@@H]1C[C@H]2[C@@H]3CCC4=CC(=O)C=C[C@]4(C)[C@@]3(F)[C@@H](O)C[C@]2(C)[C@@]1(O)C(=O)CO` [dexamethasone], the percent viability is 213% and 184%.

Take `C[C@@H]1CC(=O)NN=C1c1ccc(NN=C(C#N)C#N)cc1` [levosimendan]: the percent viability is 133%.

Turning to `CN[C@@H]1[C@H](O)[C@H](NC)[C@H]2O[C@@]3(O)C(=O)C[C@@H](C)O[C@H]3O[C@@H]2[C@H]1O` [spectinomycin], the percent viability came to 102%.

For the compound `CC(c1cc2ccccc2s1)N(O)C(N)=O` (stereo not given) [zileuton], the percent viability was 257% and 142%.

Regarding `Nc1nc2[nH]cnc2c(=S)[nH]1`, the percent viability worked out at 21.5%.

Regarding `CN(C)CCOC(c1ccccc1)c1ccc(Br)cc1` (stereo not given) [Bromodiphenhydramine], the percent viability was determined as 455%.

On to `CN(C)CC/C=C1\c2ccccc2CSc2ccccc21` [dosulepin], for which the percent viability worked out at 185%.

`CN1CCCN=C1/C=C/c1cccs1` [Pyrantel Pamoate]: the percent viability came to 210%.

Regarding `CO/N=C(\C(=O)N[C@@H]1C(=O)N2C(C(=O)O)=C(COC(C)=O)CS[C@H]12)c1ccco1` [cefuracetime], the percent viability was 149%.

Turning to `CCCNC(=O)NS(=O)(=O)c1ccc(Cl)cc1` [Chlorpropamide], the percent viability came to 266%.

For the compound `Cc1cc(=O)[nH]c(=S)[nH]1`, the percent viability worked out at 127%.

Consider `Cc1nc(NS(=O)(=O)c2ccc(N)cc2)oc1C` [sulfamoxole], for which the percent viability was 271%.

Turning to `CC(C(=O)O)c1ccc2c(c1)Cc1cccnc1O2` (stereo not given) [pranoprofen], the percent viability is 222% and 133%.

As to `C[C@@H]1O[C@@H](OC[C@H]2O[C@@H](Oc3c(-c4ccc(OCCO)c(OCCO)c4)oc4cc(OCCO)cc(O)c4c3=O)[C@H](O)[C@@H](O)[C@@H]2O)[C@H](O)[C@H](O)[C@H]1O`, the percent viability stood at 33%.

In the case of `Cc1cccc(Nc2ccccc2C(=O)O)c1C` [mefenamic acid], the percent viability was 290% and 218%.

As to `Cc1cnc(NC(=O)C2=C(O)c3ccccc3S(=O)(=O)N2C)s1` [Meloxicam], the percent viability turned out to be 218%.

As to `O=C(NCCc1ccc(O)c(O)c1)C12CC3CC(CC(C3)C1)C2` [dopamantine], the percent viability is 194%.

Consider `CC(C)C[C@H]1C(=O)O[C@H](Cc2ccc(N3CCOCC3)cc2)C(=O)N(C)[C@@H](CC(C)C)C(=O)O[C@H](C)C(=O)N(C)[C@@H](CC(C)C)C(=O)O[C@H](Cc2ccc(N3CCOCC3)cc2)C(=O)N(C)[C@@H](CC(C)C)C(=O)O[C@H](C)C(=O)N1C` [emodepside], for which the percent viability amounted to 194%.

As to `CCCCC(=O)N(Cc1ccc(-c2ccccc2-c2nnn[nH]2)cc1)[C@H](C(=O)O)C(C)C` [valsartan], the percent viability amounted to 58.7%.

Regarding `CCS(=O)(=O)c1cc2cc(C[C@](O)(CC(C)(C)c3ccc(F)cc3C(N)=O)C(F)(F)F)[nH]c2cn1`, the percent viability is 54.3%.

`CO[C@@]1(NC(=O)CSCC#N)C(=O)N2C(C(=O)O)=C(CSc3nnnn3C)CS[C@@H]21`: the percent viability amounted to 190%.

For `CCN(CC)CCOc1ccc(C(=C(Cl)c2ccccc2)c2ccccc2)cc1` [clomifene], the percent viability is 171% and 339% and 180%.

Consider `CCN(CC)CCOC1(c2ccc(Cl)cc2)CCCCC1` [clofenciclan], for which the percent viability was 182%.

Turning to `Cc1ccc(S(=O)(=O)NCl)cc1` [tosylchloramide sodium], the percent viability came out at 212%.

As to `CC(C)C[C@H](NC(=O)CNC(=O)[C@H](Cc1ccc(O)cc1)NC(=O)[C@H](CO)NC(=O)[C@H](Cc1c[nH]c2ccccc12)NC(=O)[C@H](Cc1cnc[nH]1)NC(=O)[C@@H]1CCC(=O)N1)C(=O)N[C@@H](CCCNC(=N)N)C(=O)N1CCC[C@H]1C(=O)NCC(N)=O` [gonadorelin], the percent viability turned out to be 333%.

In the case of `CN(CCOc1ccc(CC2SC(=O)NC2=O)cc1)c1ccccn1` (stereo not given) [Rosiglitazone maleate], the percent viability was determined as 289%.

For the compound `CC(=O)[C@@]1(O)CC[C@H]2[C@@H]3CCC4=CC(=O)C=C[C@]4(C)[C@H]3[C@@H](O)C[C@@]21C` [deprodone], the percent viability amounted to 193%.
